Results reported in the supplement of paper PMC9015667.
Structures can show the parent of a compound that is named as a salt. The list shows a part of the results. Many values rest on one well or one pass, so single values are uncertain.

Assays:
Experiment in all cases: reduction in cell viability relative to untreated/vehicle; higher = more growth inhibition
Settings in all cases: 200 nM; 72 h
M229P = test system: M229P (parental melanoma line)
M229R = test system: M229R (matched melanoma line resistant to BRAF inhibitors)
M238P = test system: M238P (parental melanoma line)
M238R = test system: M238R (matched melanoma line resistant to BRAF inhibitors)
M249P = test system: M249P (parental melanoma line)
M249R = test system: M249R (matched melanoma line resistant to BRAF inhibitors)
UACC62P = test system: UACC62P (parental melanoma line)
UACC62R = test system: UACC62R (matched melanoma line resistant to BRAF inhibitors)

| SMILES | reduction in cell viability (M229P) [%] | reduction in cell viability (M229R) [%] | reduction in cell viability (M238P) [%] | reduction in cell viability (M238R) [%] | reduction in cell viability (M249P) [%] | reduction in cell viability (M249R) [%] | reduction in cell viability (UACC62P) [%] | reduction in cell viability (UACC62R) [%] |
| --- | --- | --- | --- | --- | --- | --- | --- | --- |
| COc1cc2ncnc(Nc3cc(Br)c(O)c(Br)c3)c2cc1OC | < 0 | < 0 | < 0 | < 0 | < 0 | < 0 | < 0 | < 0 |
| CO[C@H]1/C=C\C=C(/C)C(=O)NC2=CC(=O)C(NCCN(C)C)=C(C[C@@H](C)C[C@H](OC)[C@H](O)[C@@H](C)/C=C(\C)[C@@H]1OC(N)=O)C2=O [Alvespimycin hydrochloride] | 54.5 | 72.4 | 66.6 | 65.4 | 29.4 | 41 | 67.4 | 68.6 |
| O=C(Nc1cc(Cl)cc2c1[nH]c1cnccc12)c1cccnc1 | < 0 | < 0 | < 0 | < 0 | < 0 | 0.81 | < 0 | < 0 |
| CNC(=O)c1ccccc1Sc1ccc2c(/C=C/c3ccccn3)n[nH]c2c1 [Axitinib] | < 0 | < 0 | < 0 | < 0 | < 0 | < 0 | < 0 | < 0 |
| CC(=O)O[C@H]1C[C@@H]2CC[C@@H]3[C@H](CC[C@@]4(C)[C@H]3C[C@H]([N+]3(C)CCCCC3)[C@@H]4OC(C)=O)[C@@]2(C)C[C@@H]1N1CCCCC1 [Vecuronium bromide] | < 0 | < 0 | < 0 | < 0 | < 0 | < 0 | < 0 | < 0 |
| Nc1nc(Cl)nc2c1ncn2[C@H]1C[C@H](O)[C@@H](CO)O1 [Cladribine] | 5.94 | 30.2 | 91.2 | 62.6 | 23.1 | 45.4 | 60.6 | 80.1 |
| Oc1c2ccccc2c2c3c(cccc13)N=N2 | < 0 | < 0 | < 0 | < 0 | < 0 | < 0 | < 0 | < 0 |
| O=C(O)CCCc1c[nH]c2ccccc12 [3-indolebutyric acid] | < 0 | < 0 | < 0 | < 0 | < 0 | < 0 | 1.46 | < 0 |
| CC(C(=O)O)c1ccc(-c2ccccc2)c(F)c1 (stereo not given) [Flurbiprofen] | < 0 | < 0 | < 0 | < 0 | < 0 | < 0 | 2.43 | < 0 |
| Cc1c(NC(=O)c2ccc(C(C)(C)C)cc2)cccc1-c1cn(C)c(=O)c(Nc2ccc(C(=O)N3CCOCC3)cc2)n1 | < 0 | < 0 | < 0 | < 0 | < 0 | < 0 | < 0 | < 0 |
| Oc1ncnc2[nH]ncc12 [Allopurinol] | < 0 | < 0 | < 0 | < 0 | < 0 | < 0 | < 0 | < 0 |
| O=[N+]([O-])c1cn2c(n1)OC[C@@H](OCc1ccc(OC(F)(F)F)cc1)C2 | < 0 | < 0 | < 0 | < 0 | < 0 | < 0 | < 0 | < 0 |
| Cc1[nH]c(/C=C2\C(=O)Nc3ccc(S(=O)(=O)N(C)c4cccc(Cl)c4)cc32)c(C)c1C(=O)N1CCN(C)CC1 | < 0 | < 0 | < 0 | < 0 | < 0 | < 0 | < 0 | < 0 |
| Cn1cc(C2=C(c3c4n(c5ccccc35)CCC(CN)C4)C(=O)NC2=O)c2ccccc21 (stereo not given) | < 0 | < 0 | < 0 | < 0 | < 0 | < 0 | < 0 | < 0 |
| CC[C@]1(O)C[C@@H]2CN(CCc3c([nH]c4ccccc34)[C@@](C(=O)OC)(c3cc4c(cc3OC)N(C)[C@H]3[C@@](O)(C(N)=O)[C@H](O)[C@]5(CC)C=CCN6CC[C@]43[C@@H]65)C2)C1 [Vindesine sulfate salt] | 34 | 52.8 | 62.1 | 56.5 | 59.3 | 47 | 49.4 | 78.5 |
| CCC(CC)[C@H](NC(C)=O)[C@@H]1[C@H](O)[C@@H](C(=O)O)C[C@H]1NC(=N)N [Peramivir] | < 0 | < 0 | < 0 | < 0 | < 0 | < 0 | < 0 | < 0 |
| COc1cc2ncn(-c3cc(OCc4ccccc4S(C)(=O)=O)c(C#N)s3)c2cc1OC [IKK-3 Inhibitor IX] | < 0 | 0.52 | < 0 | < 0 | 3.63 | 1.66 | < 0 | < 0 |
| Cc1ccc([N+](=O)[O-])cc1S(=O)(=O)N(C)/N=C/c1cnc2ccc(Br)cn12 | 76.1 | 68.1 | 87.1 | 72.7 | 90.6 | 90.4 | 92.5 | 86.9 |
| Nc1nc2[nH]cc(CCc3ccc(C(=O)N[C@@H](CCC(=O)O)C(=O)O)cc3)c2c(=O)[nH]1 [Pemetrexed disodium] | < 0 | < 0 | < 0 | < 0 | 15.3 | 4.96 | < 0 | 26.6 |
| CCOC(=O)C1=C[C@]2(CC)CCCN3CCc4c(n1c1ccccc41)[C@@H]32 [Vinpocetine] | 0.6 | < 0 | < 0 | < 0 | < 0 | < 0 | < 0 | < 0 |

Three entries from above, with bars between the fields:
SMILES | reduction in cell viability (M229P) [%] | reduction in cell viability (M229R) [%] | reduction in cell viability (M238P) [%] | reduction in cell viability (M238R) [%] | reduction in cell viability (M249P) [%] | reduction in cell viability (M249R) [%] | reduction in cell viability (UACC62P) [%] | reduction in cell viability (UACC62R) [%]
CC(=O)O[C@H]1C[C@@H]2CC[C@@H]3[C@H](CC[C@@]4(C)[C@H]3C[C@H]([N+]3(C)CCCCC3)[C@@H]4OC(C)=O)[C@@]2(C)C[C@@H]1N1CCCCC1 [Vecuronium bromide] | < 0 | < 0 | < 0 | < 0 | < 0 | < 0 | < 0 | < 0
O=C(O)CCCc1c[nH]c2ccccc12 [3-indolebutyric acid] | < 0 | < 0 | < 0 | < 0 | < 0 | < 0 | 1.46 | < 0
Cc1ccc([N+](=O)[O-])cc1S(=O)(=O)N(C)/N=C/c1cnc2ccc(Br)cn12 | 76.1 | 68.1 | 87.1 | 72.7 | 90.6 | 90.4 | 92.5 | 86.9

Carrying on:

| SMILES | reduction in cell viability (M229P) [%] | reduction in cell viability (M229R) [%] | reduction in cell viability (M238P) [%] | reduction in cell viability (M238R) [%] | reduction in cell viability (M249P) [%] | reduction in cell viability (M249R) [%] | reduction in cell viability (UACC62P) [%] | reduction in cell viability (UACC62R) [%] |
| --- | --- | --- | --- | --- | --- | --- | --- | --- |
| C/C=C(/C)C(=O)O[C@H]1C(C)=C[C@]23C(=O)[C@@H](C=C(CO)[C@@H](O)[C@]12O)[C@H]1[C@@H](C[C@H]3C)C1(C)C [Ingenol mebutate] | 8.63 | 30 | 28.4 | 0.12 | < 0 | 3.33 | < 0 | 59.2 |
| CN1CC2c3ccccc3Oc3ccc(Cl)cc3C2C1 (stereo not given) [Asenapine] | < 0 | < 0 | < 0 | < 0 | < 0 | 8.37 | < 0 | < 0 |
| CC1=C(CO)C(=O)OC([C@@H](C)C2CC[C@H]3C4C[C@H]5O[C@]56[C@@H](O)C=CC(=O)[C@]6(C)C4CC[C@]23C)C1 (stereo not given in full) | 46.3 | 36.2 | 41.3 | 59.8 | 19.5 | 15.1 | 48.8 | 60.9 |
| CC1C(=O)OC2C(O)C34C5CC(C(C)(C)C)C36C(OC(=O)C6O)OC4(C(=O)O5)C12O (stereo not given) [Ginkgolide B] | < 0 | < 0 | < 0 | < 0 | < 0 | < 0 | < 0 | < 0 |
| Cn1cc(/C=C2\C(=O)Nc3cccnc32)c2ccccc21 | < 0 | < 0 | < 0 | < 0 | < 0 | < 0 | < 0 | < 0 |
| CO[C@H]1C[C@@H]2CC[C@@H](C)[C@@](O)(O2)C(=O)C(=O)N2CCCC[C@H]2C(=O)O[C@H]([C@H](C)C[C@@H]2CC[C@@H](OP(C)(C)=O)[C@H](OC)C2)CC(=O)[C@H](C)/C=C(\C)[C@@H](O)[C@@H](OC)C(=O)[C@H](C)C[C@H](C)/C=C/C=C/C=C/1C [Ridaforolimus] | < 0 | 8.1 | 9.27 | 18.8 | 12.8 | 6.03 | 20 | 15.6 |
| CN1CCN2c3ncccc3Cc3ccccc3C2C1 (stereo not given) [Mirtazapine] | < 0 | < 0 | < 0 | < 0 | < 0 | < 0 | < 0 | < 0 |
| C[C@@H](O)[C@H]1C(=O)N2C(C(=O)[O-])=C(SC3Cn4cnc[n+]4C3)[C@H](C)[C@H]12 (stereo not given in full) [Biapenem] | 5.08 | < 0 | < 0 | < 0 | < 0 | 10.3 | < 0 | < 0 |
| Cc1[nH]c(/C=C2\C(=O)Nc3ccccc32)c(C)c1CCC(=O)O [Orantinib] | < 0 | < 0 | < 0 | < 0 | < 0 | < 0 | < 0 | < 0 |
| CC(C)[C@@H](C)/C=C/[C@@H](C)[C@H]1CC[C@H]2C3=CC=C4C[C@@H](O)CC[C@]4(C)[C@H]3CC[C@]12C [Ergosterol] | < 0 | < 0 | < 0 | < 0 | < 0 | < 0 | < 0 | < 0 |
| O=c1cc(-c2ccccc2)oc2cc(O)c(O)c(O)c12 [Baicalein] | < 0 | < 0 | < 0 | < 0 | < 0 | < 0 | 0.03 | < 0 |
| CC1=NN(c2ccc(C)c(C)c2)C(=O)/C1=N\Nc1cccc(-c2cccc(C(=O)O)c2)c1O [Eltrombopag] | < 0 | < 0 | < 0 | < 0 | < 0 | < 0 | < 0 | < 0 |
| COc1cc(C(=O)N2CCC(N3CCN(C)CC3)CC2)ccc1Nc1ncc2c(n1)N(C)c1ccccc1C(=O)N2C | 10.9 | < 0 | < 0 | < 0 | 15.1 | 13.7 | 0.42 | < 0 |
| Cc1ccccc1C(C(=O)NC1CCCCC1)N(C(=O)CNc1ccc(C#N)cc1)c1cccc(F)c1 (stereo not given) | < 0 | < 0 | < 0 | < 0 | < 0 | < 0 | < 0 | < 0 |
| C=CC(=O)Nc1cc2c(Nc3ccc(F)c(Cl)c3)ncnc2cc1OCCCN1CCOCC1 [Canertinib] | < 0 | < 0 | < 0 | < 0 | < 0 | < 0 | < 0 | < 0 |
| C[C@]1(O)C[C@@H](c2nc(-c3ccc4ccc(-c5ccccc5)nc4c3)c3c(N)nccn32)C1 [Linsitinib] | < 0 | 7.33 | 10.2 | < 0 | < 0 | < 0 | < 0 | < 0 |
| CC1(C)O[C@@H]2C[C@H]3[C@@H]4C[C@H](F)C5=CC(=O)C=C[C@]5(C)[C@@]4(F)[C@@H](O)C[C@]3(C)[C@]2(C(=O)CO)O1 [Fluocinolone acetonide] | < 0 | 2.26 | < 0 | < 0 | < 0 | < 0 | < 0 | < 0 |
| c1nc2c(NC3CCCCC3)nc(Nc3ccc(N4CCOCC4)cc3)nc2[nH]1 [Reversine] | < 0 | < 0 | 7.76 | 1.69 | < 0 | 9.2 | < 0 | 42.5 |
| CC(=O)O[C@]1(C(C)=O)CC[C@H]2[C@@H]3C=C(C)C4=CC(=O)CC[C@]4(C)[C@H]3CC[C@@]21C [Megestrol acetate] | < 0 | < 0 | < 0 | < 0 | < 0 | 3.73 | < 0 | < 0 |
| FC(F)(F)c1ccc(/C=C/c2nc(COc3ccc(CCCCn4ccnn4)cc3)co2)cc1 [Mubritinib] | < 0 | 3.95 | < 0 | < 0 | < 0 | < 0 | < 0 | < 0 |
